Source: paper PMC12670160, “A drug-repurposing screen of FDA- and EMA-approved drugs identifies two NF-κB inhibitors active against eumycetoma” (Journal of Antimicrobial Chemotherapy, 2025)
Where a name gives a salt, the structure may show the parent alone. About 130 (2.5%) of roughly 5,300 compounds showed an effect of 50% or more. Some of the results follow. Bridge positions count the residues as written; N and C are the ends. Square brackets hold non-standard residues; d marks the D form. Peptide text beside a SMILES is read from it. * marks the point of attachment. dPhe(4-NHCONH2) = NC(=O)Nc1ccc(C[C@@H](N)C(=O)O)cc1; Dihydroorotyl(S) = O=C1C[C@@H](C(=O)*)NC(=O)N1; dPhe(4-Cl) = N[C@H](Cc1ccc(Cl)cc1)C(=O)O; Phe(4-NH2) = Nc1ccc(C[C@H](N)C(=O)O)cc1; d2Nal = N[C@H](Cc1ccc2ccccc2c1)C(=O)O; Lys(iPr) = CC(C)NCCCC[C@H](N)C(=O)O; d3Pal = N[C@H](Cc1cccnc1)C(=O)O

Test system: M. mycetomatis strain mm55
Conditions: primary screen, metabolic activity vs growth control; 96 h, 2 µM; inhibitor

SMILES | % viability
O=c1c(O)c(-c2ccc(O)c(O)c2)oc2cc(O)ccc12 [ONC0005251, fisetin fustel] | 168.5%
CNS(=O)(=O)Cc1ccc2[nH]cc(CCN(C)C)c2c1 [ONC0003923, sumatriptan] | 67.04%
COc1nccc(-c2c(-c3ccc(F)cc3)ncn2[C@H]2CC[C@H](O)CC2)n1 [ONC0001733, sb239063] | 80.99%
O=C(CCCl)NCc1ccccc1 [ONC0003981, beclamide] | 60.69%
CN[C@H](CC(C)C)C(=O)N[C@H]1C(=O)N[C@@H](CC(N)=O)C(=O)N[C@H]2C(=O)N[C@H]3C(=O)N[C@H](C(=O)N[C@H](C(=O)O)c4cc(O)cc(O)c4-c4cc3ccc4O)[C@H](O)c3ccc(c(Cl)c3)Oc3cc2cc(c3O[C@@H]2O[C@H](CO)[C@@H](O)[C@H](O)[C@H]2O[C@H]2C[C@](C)(N)[C@H](O)[C@H](C)O2)Oc2ccc(cc2Cl)[C@H]1O [ONC0003670, vancomycin hydrochloride] | 56.74%
CNC(=O)[C@@H](Cc1ccccc1)N(C)C(=O)[C@@H](Cc1ccc2ccccc2c1)N(C)C(=O)/C=C/CC(C)(C)N [ONC0003613, tabimorelin fumarate] | 61.16%
COc1ccccc1CC(=N)N1C[C@@H]2C(=O)CCC(c3ccccc3)(c3ccccc3)[C@@H]2C1 [ONC0001413, rp67580] | 48.12%
CCCCCCCCCCCCCCOS(=O)(=O)O [ONC0003317, sodium tetradecyl sulfate] | 84.61%
NS(=O)(=O)c1cc2c(cc1Cl)N=CNS2(=O)=O [ONC0000783, chlorothiazide] | 66.41%
CCCn1c(=O)[nH]c2nc(-c3ccc(S(=O)(=O)N4CCN(c5ccc(Cl)cc5)CC4)cc3)[nH]c2c1=O [ONC0004463, psb603] | 98.11%
COc1cc2c(cc1OC(C)C)[C@H](c1ccc(Cl)cc1)N(c1ccc(N(C)C[C@H]3CC[C@H](N4CCN(C)C(=O)C4)CC3)cc1)C(=O)C2 [ONC0002106, nvpcgm097] | 64.38%
NCC(=O)Nc1ccc(-n2nc(C(F)(F)F)cc2-c2ccc3c(ccc4ccccc43)c2)cc1 [ONC0002577, ar12] | 66.96%
CNC(=O)c1ccc2cc([C@]3(O)CCn4cncc43)ccc2c1 [ONC0004670, tak700 orteronel] | 115.9%
CNC(=O)c1ccccc1Nc1nc(Nc2ccc3c(c2OC)CCC[C@H](N2CCN(CCO)CC2)C3)ncc1Cl [ONC0005621, cep37440] | 62.01%
CN[C@H]1CN(c2ccc3c(=O)c(C(=O)O)cn(-c4nccs4)c3n2)C[C@@H]1OC [ONC0001301, voreloxin hydrochloride] | 85.22%
COc1cc(C(=O)NS(=O)(=O)c2ccccc2C)ccc1Cc1cn(C)c2ccc(NC(=O)OC3CCCC3)cc12 [ONC0005016, zafirlukast accolate] | 51.79%
CC(=O)N[C@H](Cc1ccc2ccccc2c1)C(=O)N[C@H](Cc1ccc(Cl)cc1)C(=O)N[C@H](Cc1cccnc1)C(=O)N[C@@H](CO)C(=O)N[C@@H](Cc1ccc(NC(=O)[C@@H]2CC(=O)NC(=O)N2)cc1)C(=O)N[C@H](Cc1ccc(NC(N)=O)cc1)C(=O)N[C@@H](CC(C)C)C(=O)N[C@@H](CCCCNC(C)C)C(=O)N1CCC[C@H]1C(=O)N[C@H](C)C(N)=O [ONC0002214, degarelix] (Ac-[d2Nal][dPhe(4-Cl)][d3Pal]S[Phe(4-NH2)](Dihydroorotyl(S))[dPhe(4-NHCONH2)]L[Lys(iPr)]P[dA]-NH2) | 83.96%
Cl[C@H]1[C@H](Cl)[C@@H](Cl)[C@@H](Cl)[C@H](Cl)[C@H]1Cl [ONC0003293, lindane] | 102.8%
Cc1cc(C2CCCCC2)n(O)c(=O)c1 [ONC0000294, ciclopirox olamine] | 81.14%
CCS(=O)(=O)N(C)[C@H]1c2cc(C#N)ccc2OC(C)(C)[C@@H]1O [ONC0002693, chromanol293b3r4s] | 103.9%
CC1=C(C(=O)OC(C)C)C(c2cccc([N+](=O)[O-])c2)C(C(=O)OC2CN(C(c3ccccc3)c3ccccc3)C2)=C(N)N1 (centres unmarked) [ONC0004340, azelnidipine] | 111.6%
COc1cc([S+](C)[O-])ccc1-c1nc2ncccc2[nH]1 (centres unmarked) [ONC0002956, sulmazole] | 88.35%
CCCCCCCCCCCCC/C=C/[C@@H](O)[C@H](CO)NC(C)=O [ONC0004279, ceramide] | 73.48%
CC[C@]1(O)C[C@H]2CN(CCc3c([nH]c4ccccc34)[C@@](C(=O)OC)(c3cc4c(cc3OC)N(C)[C@H]3[C@@](O)(C(N)=O)[C@H](O)[C@]5(CC)C=CCN6CC[C@]43[C@@H]65)C2)C1 [ONC0000288, vindesine sulfate] | 94.86%
CCOc1cc([C@@H](CS(C)(=O)=O)N2C(=O)c3cccc(NC(C)=O)c3C2=O)ccc1OC [ONC0004381, apremilast cc10004 apremilast cc10004] | 94.27%
NCCCC[C@H](NC(=O)[C@@H]1CCCN1C(=O)[C@@H]1CSSC[C@H](NC(=O)CNC(=O)CNC(=O)CN)C(=O)N[C@@H](Cc2ccc(O)cc2)C(=O)N[C@@H](Cc2ccccc2)C(=O)N[C@@H](CCC(N)=O)C(=O)N[C@@H](CC(N)=O)C(=O)N1)C(=O)NCC(N)=O [ONC0001913, terlipressin] (H-GGGCYFQNCPKG-NH2; disulfide 4-9) | 80.65%
Cc1ccc2c(c1)C1(CCN(CCc3nc(-c4ccccc4)oc3C)CC1)OC(=O)N2 [ONC0001392, rs504393] | 80.78%
Oc1ccc(Cl)cc1Cc1cc(Cl)ccc1O [ONC0003308, dichlorophen] | 84.57%
CCC(CC)C(c1ccc(Nc2nc3ccccc3s2)cc1)n1cncn1 (centres unmarked) [ONC0001358, talarozole] | 86.45%

Part of the list above in order of molecular weight, smallest number first:
SMILES | % viability
NS(=O)(=O)c1cc2c(cc1Cl)N=CNS2(=O)=O [ONC0000783, chlorothiazide] | 66.41%
Cc1ccc2c(c1)C1(CCN(CCc3nc(-c4ccccc4)oc3C)CC1)OC(=O)N2 [ONC0001392, rs504393] | 80.78%
NCC(=O)Nc1ccc(-n2nc(C(F)(F)F)cc2-c2ccc3c(ccc4ccccc43)c2)cc1 [ONC0002577, ar12] | 66.96%
